# This is one part of the list. Repeats are few or missing, and single values can be far off.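 The apoptosis fraction was the count of cleaved-PARP antibody-stained nuclei relative to all DNA-stained nuclei, imaged in 1,536-well plates. Screening doses were set so most cells survived, and baseline and induced cleaved-PARP levels vary greatly across cell lines.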
# System: SkMel2
# Test: cleaved PARP positive nuclei fraction relative to DMSO control; melanoma cells; higher = more apoptosis
# Conditions: library dose: low library concentration; 72 h
row,SMILES,cleaved PARP positive nuclei fraction [%]
1,"NC1(c2ccc(-c3nc4ccn5c(=O)[nH]nc5c4cc3-c3ccccc3)cc2)CCC1 + O=C(Oc1ccc([N+](=O)[O-])cc1)N1CCC(C(O)(c2ccc3c(c2)OCO3)c2ccc3c(c2)OCO3)CC1 [JZL184] (first compound 0.4 µM, partner dose 1 µM)",30
2,"COc1ccc(C2=N[C@@H](c3ccc(Cl)cc3)[C@@H](c3ccc(Cl)cc3)N2C(=O)N2CCNC(=O)C2)c(OC(C)C)c1 [Nutlin-3] + C/C(O)=C(\C#N)C(=O)Nc1cc(Br)ccc1Br [LFM-A13] (first compound 0.1 µM, partner dose 2 µM)",92.9
3,"O=C(/C=C/c1cccnc1)NCCCCC1CCN(C(=O)c2ccccc2)CC1 + Cc1cc(SCc2sc(-c3ccc(C(F)(F)F)c(F)c3)nc2C)ccc1OCC(=O)O [GW0742] (first compound 0.01 µM, partner dose 2 µM)",1950
4,"C[As](C)SC[C@H](NC(=O)CC[C@H](N)C(=O)O)C(=O)NCC(=O)O [Darinaparsin] + NC(=O)Nc1cc(-c2cccc(F)c2)sc1C(=O)N[C@H]1CCCNC1 [AZD7762] (first compound 0.4 µM, partner dose 0.02 µM)",239
5,"C[As](C)SC[C@H](NC(=O)CC[C@H](N)C(=O)O)C(=O)NCC(=O)O [Darinaparsin] + C[C@@H]1CCN(C(=O)CC#N)C[C@@H]1N(C)c1ncnc2[nH]ccc12 [CP690550] (first compound 0.4 µM, partner dose 1 µM)",52.6

# Source: the supplement of paper PMC4604168 (melanoma cell lines)
